Amino acid sequences for entries named in this document (tags omitted). A change or cut given only in a name is not applied to a line headed by its entry.
UniProt Q9LX85: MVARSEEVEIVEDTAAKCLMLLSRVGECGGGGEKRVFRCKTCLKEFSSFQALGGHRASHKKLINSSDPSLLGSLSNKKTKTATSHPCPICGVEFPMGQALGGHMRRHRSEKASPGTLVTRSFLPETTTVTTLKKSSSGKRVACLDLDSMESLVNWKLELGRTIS

According to paper PMC6185907:

Assays:
[1] = target: T1, GST-Topless (N-terminal sequence of Topless, 1-188 AA) (UniProt Q94AI7); experiment: pull-down; in vitro GST pull-down; GST-Topless (1-188) with MBP-SRG1; western blot with anti-MBP or anti-GST antibodies; both purified
T1 sequence: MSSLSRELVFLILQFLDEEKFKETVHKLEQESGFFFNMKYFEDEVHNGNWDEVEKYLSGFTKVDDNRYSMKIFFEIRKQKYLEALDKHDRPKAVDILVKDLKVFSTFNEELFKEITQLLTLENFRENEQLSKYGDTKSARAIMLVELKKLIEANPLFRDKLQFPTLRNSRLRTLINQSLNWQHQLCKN

[2] = target: T2, Topless, yeast two-hybrid fusion (UniProt Q94AI7); experiment: two-hybrid; yeast two-hybrid, Gal4 AD and BD fusions; spotted on SD-TL or SD-TLH with 5 mM 3-amino-1,2,4 triazole (3AT)
T2 sequence: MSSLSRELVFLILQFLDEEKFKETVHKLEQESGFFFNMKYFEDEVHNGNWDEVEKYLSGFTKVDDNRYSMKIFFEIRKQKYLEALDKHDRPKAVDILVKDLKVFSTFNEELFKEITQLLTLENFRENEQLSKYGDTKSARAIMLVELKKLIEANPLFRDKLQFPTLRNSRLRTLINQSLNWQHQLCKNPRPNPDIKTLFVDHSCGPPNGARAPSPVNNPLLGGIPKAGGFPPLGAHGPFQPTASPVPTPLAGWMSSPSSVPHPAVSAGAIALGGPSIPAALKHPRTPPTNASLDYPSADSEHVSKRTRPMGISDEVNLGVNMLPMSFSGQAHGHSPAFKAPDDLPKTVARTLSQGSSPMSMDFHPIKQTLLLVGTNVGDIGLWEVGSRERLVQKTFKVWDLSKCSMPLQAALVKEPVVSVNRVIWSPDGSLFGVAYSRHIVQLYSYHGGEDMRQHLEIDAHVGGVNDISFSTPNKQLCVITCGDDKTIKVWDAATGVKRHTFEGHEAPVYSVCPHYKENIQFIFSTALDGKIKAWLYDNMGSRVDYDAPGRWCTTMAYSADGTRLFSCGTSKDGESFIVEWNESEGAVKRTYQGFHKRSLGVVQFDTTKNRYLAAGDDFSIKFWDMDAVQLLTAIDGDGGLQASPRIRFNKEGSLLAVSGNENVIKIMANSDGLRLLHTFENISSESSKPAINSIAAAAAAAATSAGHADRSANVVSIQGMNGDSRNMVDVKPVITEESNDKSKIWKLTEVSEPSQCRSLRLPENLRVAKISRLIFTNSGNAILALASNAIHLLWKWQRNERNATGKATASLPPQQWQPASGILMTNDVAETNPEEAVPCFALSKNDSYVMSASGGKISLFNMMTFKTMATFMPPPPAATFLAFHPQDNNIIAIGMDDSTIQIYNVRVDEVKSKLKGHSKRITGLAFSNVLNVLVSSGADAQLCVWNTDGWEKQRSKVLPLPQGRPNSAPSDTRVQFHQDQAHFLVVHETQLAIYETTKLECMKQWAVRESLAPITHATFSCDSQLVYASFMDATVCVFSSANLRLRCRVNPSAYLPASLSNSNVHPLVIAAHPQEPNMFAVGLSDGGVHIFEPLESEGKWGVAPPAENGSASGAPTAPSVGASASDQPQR

[3] = target: T3, Topless fused to the N-terminus of YFP (Topless-YN) (UniProt Q94AI7); experiment: split reporter; BiFC; Topless-YN and SRG-YC transiently co-expressed in N. benthamiana leaves by agroinfiltration; YFP fluorescence by confocal microscopy
T3 sequence: T2 sequence

Row | Substance | binding [2] | also measured
1 | Recombinant MBP-SRG1 (SNO-regulated gene1, C2H2 zinc finger transcription factor) (from UniProt Q9LX85) | – | binding [1]: binds
2 | SRG1 deleted of the EAR motif (SRG1^Δ), yeast two-hybrid fusion (Arabidopsis) (domain or fragment) | no binding | –
3 | SRG1 fused to the C-terminus of YFP (SRG-YC) (from UniProt Q9LX85) | – | binding [3]: binds
4 | SRG1, yeast two-hybrid fusion (from UniProt Q9LX85) | binds | –

No constants are given. Whether binding was seen depends on the method and setting. Binding can be weak; no strength is given. Tags and fused reporters may be left off the sequences shown. For some of these results: In cells and extracts the contact can be indirect.
